At least one structure is not confirmed: it was looked up by name or label, or the drawing left a doubt.
Assay: Effect on formation of sterol-rich (cholesterol) domains in model membranes, by small angle x-ray scattering
Settings: POPC:cholesterol 1:1.5 model membranes; molar ratio of membrane to test composition 30:1; normalized peak intensity (34 Å); value is a reduction

| Structure (SMILES) | relative cholesterol domain peak intensity, change compared to untreated control model membranes |
| --- | --- |
| CC/C=C\C/C=C\C/C=C\C/C=C\C/C=C\C/C=C\CCC(=O)O [DHA, docosahexaenoic acid] | no significant effect |
| CC/C=C\C/C=C\C/C=C\C/C=C\C/C=C\CCCC(=O)O [EPA, eicosapentaenoic acid] | 65% |

From patent publication US20220142962A1, “METHODS OF TREATING HYPERCHOLESTEROLEMIA” (Amarin Pharmaceuticals Ireland Limited, priority 2012, published 2022)
